Test results reported in patent US7510850B2, “Isolation of the mitotic spindle matrix and its methods of use” (Carnegie Institution of Washington, priority 2005, dated 2009).
At least one structure is not confirmed: it was looked up by name or label, or the drawing left a doubt.

Tested on: Eg5
Experiment: MT nucleation and spindle assembly by AurA-beads or XMAP215-beads in M-phase egg extracts with RanGTP, Eg5 inhibited
Assay type: biochemical, Xenopus

With `CCOC(=O)C1=C(C)NC(=S)NC1c1cccc(O)c1` (stereo not shown) [Monastrol] the “AurA-beads that could nucleate MT asters” value (Eg5 inhibited) was −40%, the “XMAP215-beads able to nucleate MT asters” value (Eg5 inhibited) was “over 90%” and the “spindle assembly in egg extract containing AurA-beads or XMAP215-beads” value (Eg5 inhibited by Monastrol, RanGTP) was “completely disrupted”. For the same compound, the “percentage of MT-free AurA-beads” value (FIG. 15D) was “significantly increased”.
